The test system of one data set is polyArg. Briefly: Isothermal titration calorimetry, POM into polyArg. The class given is binding. The conditions noted are these: 10 mM Mes, pH 5.5, 298.15 K. The method, then: (§1) All experiments were performed with a VP-ITC MicroCalorimeter from MicroCal, Int,. at atmospheric pressure and 298.15 K. Solutions were degassed and thermostatic prior the titration experiments in a ThermoVac accessory. A constant volume of POM ([PVW11]^4- or [SiMoW11]^4-) (10 µL per injection) was injected into the oligopeptide solution (heptaArg, protamine, polyArg or heptaLys) in 10 mM Mes, pH 5.5 to determine the apparent binding affinity of [PVW11]^4- and [SiMoW11]^4- with the oligopeptides. Dilution heats were determined by titration of the POM into buffer and subtracted from the reaction heat. The neat reaction heat was fitted with Origin 7.0 software by using the "one-set-of-sites" model to obtain the complex stability constant (Ka) and molar reaction enthalpy (ΔH°). The free energy (ΔG°) and entropy changes (ΔS°) were obtained according to the relation: ΔG° = - R TInKa = ΔH°-TΔS°.
For orientation: Isothermal titration calorimetry measures the heat released or taken up as one component is titrated into another.

In another data set the test system is heptaArg. Briefly: Isothermal titration calorimetry, POM into heptaArg. The class given is binding. The settings on record: 10 mM Mes, pH 5.5, 298.15 K. The method, then: as §1
The subject of another data set is protamine. Briefly: Isothermal titration calorimetry, POM into protamine. The class given is binding. The conditions noted are these: 10 mM Mes, pH 5.5, 298.15 K. The protocol: as §1
The nature of data set [1]: Transport experiments in CF-loaded zwitterionic EYPC vesicles (CF fluorescence, Hill analysis). In kind it is biochemical. The settings on record: EYPC⊃CF liposomes. The protocol: The dry film was rehydrated with 1 mL buffer (50 mM CF, 10 mM Hepes, pH 7.4 or 50 mM CF, 10 mM Tris, pH 7.4) for 30 min at room temperature, subjected to freeze-thaw cycles (7 times) and extrusions (15 times) through a polycarbonate membrane (pore size 100 nm). Extravesicular components were removed by size exclusion chromatography (NAP-25 column Sephadex G-25 DNA grade) with 10 mM Hepes, 107 mM NaCl, pH 7.4 or 10 mM Hepes, 107 mM NaCl, pH 7.4. Phospholipid concentration was calculated by the Stewart assay. […]
Vesicles stock solutions (5-10 µL) were diluted with the corresponding buffer in a disposable plastic cuvette and gently stirred (total volume 2000 µL, final lipid concentration 13 µM). […] Fluorescence intensities were normalized to fractional emission as: I(t) = (It −I0)/(I∞ −I0) [formula]
Where I0 = It before POM addition and I0 = I∞ after lysis. […]
In the transport measurements, where different carriers (POMs) are tested with the same cargo, the activator efficiency (E) is determined by their capacity to transport the impermeable cargo to the intravesicular region and is characterized by Ymax, its maximal activity, and EC50, the effective activator concentration. […]

K4[α-P^VV^VW^VI11O40]·4H2O [[PVW11]^4-]: the PolyArg n in the data set on polyArg came to 6.7. The substance also yielded a HeptaArg n in the data set on heptaArg of 0.90. Also, in the data set with protamine, the Protamine n turned out to be 3.1.

“K4[α-Si^IVMo^VIW^VI11O40]·24H2O [[SiMoW11]^4-]”: the PolyArg n in the data set on polyArg was determined as 6.1. Besides, the HeptaArg n in the data set on heptaArg came to 1.10. In addition, the Protamine n in the data set with protamine worked out at 3.2.

As to K4[α-Si^IVW^VI12O40]·14H2O [[SiW12]^4-], in data set [1], the “vesicle lysis at higher POM concentration (DLS, Fig. 11)” value is given as “lyse the vesicles”.

Consider Na3[α-P^VW^VI12O40]·nH2O [[PW12]^3-], for which the “vesicle lysis at higher POM concentration (DLS, Fig. 11)” value in data set [1] is “lyse the vesicles”.
